Measured values published in patent publication US11014961B2, “Self-labeling miniproteins and conjugates comprising them” (priority 2017, dated 2021).

Experiment: Second order rate constant of the reaction between miniprotein (MP) and capture agent (CA), LC-MS TIC peak integration
Assay type: biochemical
Details: pH 6-9.5, buffers MES/HEPES/TAPS/CAPS

With “MNQKYKMAKACFFAFLEHLKKRKLYPMSG-NH2 [MP01-Gen4]” the “midpoint of reaction rate versus pH curve” value was roughly 8 pH.

No end group written: not given here.
